The results in this text go back to the supplement of paper PMC12889115.

In the assay the test system is Salmonella enterica serovar Typhimurium SL1344. Kind of assay: bacterial growth OD600 after 18 h with compound and polymyxin B; higher = more bacterial growth (less inhibition). To be noted: 50 µM, Mueller-Hinton broth.

Structures are written as SMILES. This is one part of the list. Values are raw readings; no control value is given beside them.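 In the initial screen, polymyxin B was used at a concentration that permeabilizes Salmonella's outer membrane but not its inner membrane. Maximum growth was set by DMSO wells with or without polymyxin B. Since plates varied, data were ranked per plate, and compounds giving the lowest OD600 advanced as hits.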

As to `C=CCNC(=O)c1coc(COc2cccc(F)c2F)n1`, under “polymyxin B 1 µg/mL”, the “bacterial growth OD600” value stood at 0.737. `COc1cc(=O)n2c(c1C(=O)N(C)Cc1nonc1C)CCN(C(=O)CC1CCCCC1)CC2`: for the setting “polymyxin B 0.75 µg/mL”, the “bacterial growth OD600” value is 0.977. Consider `COC(=O)CNC(=O)CC(c1cccc(Cl)c1)c1ccccc1O` (stereo unspecified), for which the “bacterial growth OD600” value (polymyxin B 1 µg/mL) was 0.858. Same read-out and setting: then `COCC1CCCN(C(=O)c2coc(COc3ccc(F)cc3Cl)n2)C1` (stereo unspecified), with 0.984. As for `Cc1nn(-c2ccccc2)c(C)c1CC(=O)N1CCCC(c2ccncn2)C1` (stereo unspecified), the “bacterial growth OD600” value (polymyxin B 0.75 µg/mL) is 0.768. Same read-out and setting: then `COc1ccccc1C1(CC(=O)N(C)Cc2ccccc2C(F)(F)F)CC(=O)N(C)C1=O` (stereo unspecified), with 0.79; and `Cc1nc2sccn2c1CN1CCC2(CC1)CC2C(=O)NCc1ccco1` (stereo unspecified), with 0.889. `CC(CN1CCCC1)CN(C)C(=O)c1csc2nc(-c3ccccc3)cn12` (stereo unspecified): the “bacterial growth OD600” value (polymyxin B 1 µg/mL) came to 0.922. With `OCC1(Cc2ccc(F)cc2)CCCN(C2CCN(CCc3ccccc3)CC2)C1` (stereo unspecified), the “bacterial growth OD600” value (polymyxin B 0.75 µg/mL) stood at 0.787.

Regarding `CN(CCc1ccccn1)C(=O)CCC1CCCN(C(=O)c2cn3ccsc3n2)C1` (stereo unspecified), where the note is “polymyxin B 1 µg/mL”, the “bacterial growth OD600” value worked out at 0.891. `Cc1ccccc1Oc1ncccc1CNCc1cnn(C)c1`: under “polymyxin B 0.75 µg/mL”, the “bacterial growth OD600” value was determined as 0.927. `CC1=C(C(=O)N2CCC(C(=O)Nc3cccc(-c4nnc(C)s4)c3)CC2)OCCO1`: the “bacterial growth OD600” value (polymyxin B 1 µg/mL) stood at 0.883. As to `COc1ccc(CN2CCC(C(Cc3ccccc3Cl)N(C)C(=O)c3ccco3)CC2)cc1OC` (stereo unspecified), the “bacterial growth OD600” value (polymyxin B 0.75 µg/mL) was 0.884. For `CN(C)C(=O)CCC(=O)NCc1cccnc1-n1cnc2ccccc21`, under “polymyxin B 1 µg/mL”, the “bacterial growth OD600” value amounted to 1.06. On the same count and under the same terms, then `Cc1ccc(CNCC2(O)CCCN(CC3CCC3)C2=O)cc1F` (stereo unspecified), with 0.776. The same measure, in the same setting: then `O=C1CC(NS(=O)(=O)N2CCCC2)CN1Cc1cccc2ccccc12` (stereo unspecified), with 0.947. Turning to `CCOC(=O)C1(Cc2ccccc2)CCN(Cc2sc(N(C)C)nc2Cl)CC1`, the “bacterial growth OD600” value (polymyxin B 0.75 µg/mL) stood at 0.751.

For the molecule `COc1ccc(C(CC(=O)NCc2ncc[nH]2)c2ccccc2)cc1` (stereo unspecified), the “bacterial growth OD600” value (polymyxin B 1 µg/mL) was 0.799. In the case of `Cc1ccc(C)c(CN2CCC(n3nccc3NC(=O)C(C)(C)C)CC2)c1`, the “bacterial growth OD600” value (polymyxin B 1 µg/mL) is 0.931. On to `CN(Cc1cccc(Cl)c1)C(=O)c1coc(COc2cccc3cnccc23)n1`, for which, for the setting “polymyxin B 1 µg/mL”, the “bacterial growth OD600” value worked out at 0.49. Take `CCCOC1CCCN(c2ccc(-c3nc(C4CC4)no3)cn2)C1` (stereo unspecified): under “polymyxin B 1 µg/mL”, the “bacterial growth OD600” value is 1.09.
